The experiment deals with Human breast cancer cells MCF-7. Briefly: MCF-7 cell proliferation experiment. Format: cell-based. To be noted: MCF7, MCF-7 cells, 72 hours, Cell Titer-Glo. The protocol:
Test Example 2: MCF-7 Cell Proliferation Experiment
Human breast cancer cells MCF-7 (HTB-22, purchased from ATCC) were inoculated into a 96-well plate. The culture medium was an MEM (Hyclone, SH30024.01B) culture medium containing 10% of FBS (Gibco, 10099-141), 1% of pyruvic acid (Sigma, S8636), and 1% of nonessential amino acid (Sigma, M7145), and the inoculation density was 4,000 cells/well. The cells were cultured at 37° C., 5% CO2. The compound was prepared into a 20 mM stock solution, which was subjected to gradient dilution to a final concentration of […] with 100% DMSO (Sigma, D2650) and then diluted 20 folds with a culture medium containing 2% of FBS. After 24 hours of culture, the culture medium was removed, 90 μL of a culture medium containing 2% of FBS and 10 μL of drug were added to each well, while 10 μL of DMSO was added to the control group, and they were gently shaken and mixed. The blank group only contained 100 μL of 2% FBS culture medium. They were placed in an incubator and cultured at 37° C., 5% CO2. After 72 hours, 50 μL of mixed Cell Titer-Glo (Promega, G7571) was added. They were shaken and mixed uniformly, and placed at room temperature for 10 min. The chemiluminescence signal value was determined. The negative control was 0.5% DMSO well.
A general note: In ATP-based viability assays light output follows the ATP content of the culture.

On to `CC/C(=C(\c1ccccc1)c1ccc(OCCN(C)C)cc1)c1ccccc1` [Tamoxifen, reference compound], for which the IC50 came to 0.275 µM.

The IC50 is the concentration that gives 50% inhibition.

Values taken from patent publication US20240217988A1, “ESTROGEN RECEPTOR ANTAGONIST” (Shenzhen Forward Pharmaceuticals Co., Limited, priority 2021, published 2024).
